Measured values published in patent publication US6627650B2, “Indenoindolone compounds” (Les Laboratoires Servier, priority 2001, dated 2003).
Some entries share one result that the patent states for a list of compounds.

System: P388 (murine leukaemia)
Assay: In vivo anti-tumour activity on P388 leukaemia
Conditions: from a dose of 50 mg/kg, intravenous route on days 1, 5 and 9, BDF1 mice, P388 i.p.

## C#CCO/N=C1/c2cc(OC)c(OC)cc2-c2[nH]c3ccc(OCCN(C)C)cc3c21.Cl [Example 18, (10Z)-8-(2-Dimethylaminoethoxy)-2,3-dimethoxyindeno[1,2-b]indole-10(5H)-one O-(2-Propynyl)oxime Hydrochloride]
  T/C (survival time): ≥ 200%
